{"sequences": {"note": "Protein sequences, listed by entry. Tags and fused reporters are not part of them. Lines headed by an entry give the natural chain unless they say otherwise; changes in a name come on top.", "UniProt Q13625": "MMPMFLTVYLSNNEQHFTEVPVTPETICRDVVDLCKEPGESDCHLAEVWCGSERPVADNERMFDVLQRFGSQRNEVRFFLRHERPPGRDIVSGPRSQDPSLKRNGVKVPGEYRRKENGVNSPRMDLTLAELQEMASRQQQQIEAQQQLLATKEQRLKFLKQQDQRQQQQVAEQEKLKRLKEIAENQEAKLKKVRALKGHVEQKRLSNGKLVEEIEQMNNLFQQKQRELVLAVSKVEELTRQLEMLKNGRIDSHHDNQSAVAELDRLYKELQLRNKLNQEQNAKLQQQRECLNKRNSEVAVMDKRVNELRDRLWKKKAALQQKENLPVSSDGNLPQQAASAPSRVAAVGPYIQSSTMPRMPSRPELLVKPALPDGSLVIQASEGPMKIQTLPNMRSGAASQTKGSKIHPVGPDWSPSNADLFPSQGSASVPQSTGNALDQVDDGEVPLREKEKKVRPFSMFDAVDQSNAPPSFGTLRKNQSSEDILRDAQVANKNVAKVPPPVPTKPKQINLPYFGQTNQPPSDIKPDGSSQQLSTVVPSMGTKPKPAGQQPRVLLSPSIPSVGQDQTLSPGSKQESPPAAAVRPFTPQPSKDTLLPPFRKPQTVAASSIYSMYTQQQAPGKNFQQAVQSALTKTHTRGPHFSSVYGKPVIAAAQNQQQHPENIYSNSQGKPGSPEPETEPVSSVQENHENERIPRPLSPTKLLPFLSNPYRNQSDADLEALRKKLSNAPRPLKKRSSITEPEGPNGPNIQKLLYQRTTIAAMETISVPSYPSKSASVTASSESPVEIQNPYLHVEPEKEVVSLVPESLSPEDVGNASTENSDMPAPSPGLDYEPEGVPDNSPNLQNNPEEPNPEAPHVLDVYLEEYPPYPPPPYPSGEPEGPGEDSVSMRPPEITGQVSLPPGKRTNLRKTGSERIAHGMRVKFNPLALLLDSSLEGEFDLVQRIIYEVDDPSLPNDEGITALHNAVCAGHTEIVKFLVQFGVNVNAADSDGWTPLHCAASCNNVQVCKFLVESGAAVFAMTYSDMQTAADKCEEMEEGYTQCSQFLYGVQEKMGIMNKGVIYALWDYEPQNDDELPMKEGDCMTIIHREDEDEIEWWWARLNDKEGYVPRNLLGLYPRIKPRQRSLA", "UniProt Q9H3S4": "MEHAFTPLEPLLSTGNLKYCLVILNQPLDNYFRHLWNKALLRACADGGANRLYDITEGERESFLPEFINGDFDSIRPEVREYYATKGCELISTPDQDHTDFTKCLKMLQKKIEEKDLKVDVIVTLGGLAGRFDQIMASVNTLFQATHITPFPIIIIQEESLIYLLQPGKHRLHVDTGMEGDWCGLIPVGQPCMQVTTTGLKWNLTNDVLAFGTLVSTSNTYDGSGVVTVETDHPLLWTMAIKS", "UniProt Q96QT4": "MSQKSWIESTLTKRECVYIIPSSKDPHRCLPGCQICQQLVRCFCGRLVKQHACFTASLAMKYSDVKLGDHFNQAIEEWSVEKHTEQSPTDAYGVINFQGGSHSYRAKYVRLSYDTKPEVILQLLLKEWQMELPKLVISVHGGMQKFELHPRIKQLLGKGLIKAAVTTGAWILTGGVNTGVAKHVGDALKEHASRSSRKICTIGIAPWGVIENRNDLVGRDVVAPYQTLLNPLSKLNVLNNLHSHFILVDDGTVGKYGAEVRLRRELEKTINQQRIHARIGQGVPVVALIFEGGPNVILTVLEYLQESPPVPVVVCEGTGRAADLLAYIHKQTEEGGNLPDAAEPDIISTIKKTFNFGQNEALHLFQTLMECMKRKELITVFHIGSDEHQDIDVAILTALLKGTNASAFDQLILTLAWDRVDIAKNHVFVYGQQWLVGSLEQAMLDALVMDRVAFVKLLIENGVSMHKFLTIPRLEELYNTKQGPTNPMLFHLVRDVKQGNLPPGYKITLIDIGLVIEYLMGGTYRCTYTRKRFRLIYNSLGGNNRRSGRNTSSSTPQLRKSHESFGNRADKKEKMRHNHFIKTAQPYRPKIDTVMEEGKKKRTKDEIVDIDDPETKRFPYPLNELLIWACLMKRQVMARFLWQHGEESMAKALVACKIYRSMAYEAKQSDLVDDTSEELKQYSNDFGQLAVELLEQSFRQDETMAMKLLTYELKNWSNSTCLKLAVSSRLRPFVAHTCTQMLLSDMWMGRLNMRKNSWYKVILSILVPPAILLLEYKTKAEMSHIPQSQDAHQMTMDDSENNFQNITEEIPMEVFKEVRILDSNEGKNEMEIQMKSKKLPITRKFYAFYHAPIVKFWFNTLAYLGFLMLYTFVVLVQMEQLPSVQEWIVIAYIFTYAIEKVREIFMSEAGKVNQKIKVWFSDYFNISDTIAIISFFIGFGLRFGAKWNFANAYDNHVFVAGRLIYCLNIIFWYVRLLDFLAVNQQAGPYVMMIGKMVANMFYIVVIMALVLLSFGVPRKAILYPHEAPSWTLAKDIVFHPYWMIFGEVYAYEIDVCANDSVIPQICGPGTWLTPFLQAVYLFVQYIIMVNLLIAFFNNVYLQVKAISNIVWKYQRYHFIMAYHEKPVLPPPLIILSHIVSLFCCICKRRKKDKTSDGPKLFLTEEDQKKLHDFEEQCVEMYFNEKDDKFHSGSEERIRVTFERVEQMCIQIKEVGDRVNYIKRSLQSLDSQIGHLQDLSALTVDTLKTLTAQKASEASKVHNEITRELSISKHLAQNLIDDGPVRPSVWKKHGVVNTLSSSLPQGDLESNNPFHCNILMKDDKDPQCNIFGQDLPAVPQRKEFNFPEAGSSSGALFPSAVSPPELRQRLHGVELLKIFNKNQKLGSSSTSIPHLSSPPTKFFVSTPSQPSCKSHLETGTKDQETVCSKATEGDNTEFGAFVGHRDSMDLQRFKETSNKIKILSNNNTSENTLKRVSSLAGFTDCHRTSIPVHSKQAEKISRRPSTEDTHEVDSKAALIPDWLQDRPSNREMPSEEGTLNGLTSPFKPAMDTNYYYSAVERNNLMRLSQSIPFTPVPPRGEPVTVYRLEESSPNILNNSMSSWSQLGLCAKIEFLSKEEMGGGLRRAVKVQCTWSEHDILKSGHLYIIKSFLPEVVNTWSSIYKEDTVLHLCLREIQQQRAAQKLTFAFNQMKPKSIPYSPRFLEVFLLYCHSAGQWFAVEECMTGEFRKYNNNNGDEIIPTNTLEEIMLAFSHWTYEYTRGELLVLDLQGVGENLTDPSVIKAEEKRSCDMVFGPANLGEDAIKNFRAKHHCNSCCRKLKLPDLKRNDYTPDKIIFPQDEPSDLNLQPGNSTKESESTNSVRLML", "UniProt O15164": "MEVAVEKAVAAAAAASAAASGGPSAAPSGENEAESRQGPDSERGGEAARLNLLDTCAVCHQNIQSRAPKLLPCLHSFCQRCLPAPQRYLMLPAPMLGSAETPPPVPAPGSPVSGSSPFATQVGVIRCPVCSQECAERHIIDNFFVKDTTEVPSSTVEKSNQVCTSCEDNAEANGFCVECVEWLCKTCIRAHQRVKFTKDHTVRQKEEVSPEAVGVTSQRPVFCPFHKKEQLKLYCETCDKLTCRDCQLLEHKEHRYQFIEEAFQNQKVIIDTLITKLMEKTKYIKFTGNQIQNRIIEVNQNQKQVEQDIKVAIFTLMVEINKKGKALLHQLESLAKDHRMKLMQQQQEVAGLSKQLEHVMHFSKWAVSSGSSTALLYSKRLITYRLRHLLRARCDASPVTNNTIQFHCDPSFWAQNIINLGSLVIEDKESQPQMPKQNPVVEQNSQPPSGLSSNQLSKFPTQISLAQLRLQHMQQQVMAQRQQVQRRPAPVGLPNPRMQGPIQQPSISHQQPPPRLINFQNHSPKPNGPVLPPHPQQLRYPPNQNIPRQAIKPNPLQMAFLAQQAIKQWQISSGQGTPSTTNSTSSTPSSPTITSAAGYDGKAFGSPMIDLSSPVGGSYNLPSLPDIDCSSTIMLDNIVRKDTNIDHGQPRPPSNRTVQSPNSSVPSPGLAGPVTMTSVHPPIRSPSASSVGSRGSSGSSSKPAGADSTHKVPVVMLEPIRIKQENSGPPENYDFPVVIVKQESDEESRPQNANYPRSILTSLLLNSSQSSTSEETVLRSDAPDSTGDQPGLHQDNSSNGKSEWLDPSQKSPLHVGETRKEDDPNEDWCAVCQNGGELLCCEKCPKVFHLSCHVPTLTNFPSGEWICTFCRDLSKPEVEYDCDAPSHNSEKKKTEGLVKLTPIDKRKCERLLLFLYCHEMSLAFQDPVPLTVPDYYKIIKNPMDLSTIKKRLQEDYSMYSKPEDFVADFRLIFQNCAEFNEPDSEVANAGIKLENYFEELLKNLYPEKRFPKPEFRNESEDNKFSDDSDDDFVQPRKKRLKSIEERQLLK", "UniProt Q9Y5R8, whole entry, looked up": "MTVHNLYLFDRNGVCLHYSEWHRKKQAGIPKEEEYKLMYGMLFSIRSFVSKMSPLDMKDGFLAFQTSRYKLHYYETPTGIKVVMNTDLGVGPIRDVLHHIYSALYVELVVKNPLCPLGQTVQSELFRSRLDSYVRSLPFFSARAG", "UniProt Q9BSV6": "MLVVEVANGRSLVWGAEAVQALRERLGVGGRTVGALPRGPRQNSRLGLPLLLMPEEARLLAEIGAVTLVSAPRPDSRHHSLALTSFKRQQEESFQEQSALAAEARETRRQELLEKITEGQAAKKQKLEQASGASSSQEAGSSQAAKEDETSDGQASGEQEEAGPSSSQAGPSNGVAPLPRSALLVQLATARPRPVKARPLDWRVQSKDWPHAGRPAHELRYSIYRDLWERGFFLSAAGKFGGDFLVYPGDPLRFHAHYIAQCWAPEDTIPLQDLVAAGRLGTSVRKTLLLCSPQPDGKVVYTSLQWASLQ", "UniProt Q8TEL6": "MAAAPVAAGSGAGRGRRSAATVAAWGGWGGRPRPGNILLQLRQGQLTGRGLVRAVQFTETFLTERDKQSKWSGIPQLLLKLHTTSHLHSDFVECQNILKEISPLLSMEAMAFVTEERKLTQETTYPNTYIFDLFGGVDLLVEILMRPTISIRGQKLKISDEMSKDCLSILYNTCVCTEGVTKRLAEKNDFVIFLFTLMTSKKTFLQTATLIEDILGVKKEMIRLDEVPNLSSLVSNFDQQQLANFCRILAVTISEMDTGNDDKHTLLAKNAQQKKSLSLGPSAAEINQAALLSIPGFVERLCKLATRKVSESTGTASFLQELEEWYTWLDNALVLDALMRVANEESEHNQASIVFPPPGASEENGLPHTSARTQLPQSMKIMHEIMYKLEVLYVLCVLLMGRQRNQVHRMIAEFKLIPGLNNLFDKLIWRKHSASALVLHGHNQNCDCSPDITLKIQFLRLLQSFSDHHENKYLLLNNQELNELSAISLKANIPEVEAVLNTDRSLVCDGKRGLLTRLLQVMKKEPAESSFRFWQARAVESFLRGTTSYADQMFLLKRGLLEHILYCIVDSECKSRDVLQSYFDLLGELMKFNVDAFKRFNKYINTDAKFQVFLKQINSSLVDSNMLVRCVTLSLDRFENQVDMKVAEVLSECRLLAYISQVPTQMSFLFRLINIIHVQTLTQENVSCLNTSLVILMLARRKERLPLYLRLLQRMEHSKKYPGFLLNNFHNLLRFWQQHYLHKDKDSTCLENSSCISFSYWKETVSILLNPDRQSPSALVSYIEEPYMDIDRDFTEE", "UniProt Q9P0U1": "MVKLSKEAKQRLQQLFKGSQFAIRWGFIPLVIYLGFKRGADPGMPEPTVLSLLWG", "UniProt Q7L0Y3": "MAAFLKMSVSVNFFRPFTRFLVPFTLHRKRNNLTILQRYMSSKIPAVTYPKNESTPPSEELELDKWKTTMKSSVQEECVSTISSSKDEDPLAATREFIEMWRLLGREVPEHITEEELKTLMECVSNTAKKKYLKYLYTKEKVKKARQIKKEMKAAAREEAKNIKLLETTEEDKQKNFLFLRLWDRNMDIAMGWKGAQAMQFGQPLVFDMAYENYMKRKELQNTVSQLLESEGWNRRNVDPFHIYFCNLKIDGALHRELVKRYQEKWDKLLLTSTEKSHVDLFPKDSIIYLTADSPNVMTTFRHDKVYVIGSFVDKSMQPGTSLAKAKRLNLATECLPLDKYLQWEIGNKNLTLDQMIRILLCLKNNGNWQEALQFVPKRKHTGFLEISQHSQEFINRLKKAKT", "UniProt Q96FX7": "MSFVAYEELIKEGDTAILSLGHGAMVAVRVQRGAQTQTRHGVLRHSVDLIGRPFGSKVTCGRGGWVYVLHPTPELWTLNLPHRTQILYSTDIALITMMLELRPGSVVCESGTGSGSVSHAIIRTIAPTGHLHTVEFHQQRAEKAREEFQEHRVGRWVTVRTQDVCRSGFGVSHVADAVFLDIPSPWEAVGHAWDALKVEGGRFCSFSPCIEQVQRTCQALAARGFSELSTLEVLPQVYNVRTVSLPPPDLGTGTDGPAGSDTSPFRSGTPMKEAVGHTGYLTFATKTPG", "UniProt Q629K1": "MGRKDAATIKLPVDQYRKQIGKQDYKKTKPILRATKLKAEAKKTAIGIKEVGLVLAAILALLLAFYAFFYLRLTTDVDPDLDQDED", "UniProt Q9BW30": "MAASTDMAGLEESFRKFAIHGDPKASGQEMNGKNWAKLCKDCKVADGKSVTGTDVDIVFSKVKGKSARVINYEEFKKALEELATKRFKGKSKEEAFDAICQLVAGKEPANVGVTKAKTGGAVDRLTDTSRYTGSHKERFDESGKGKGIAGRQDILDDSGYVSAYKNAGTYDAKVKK"}, "source": "the supplement of paper PMC10849652", "note": "The list shows a part of the results.", "data": [{"compound": "Cc1cc(Nc2cc(N3CCN(C)CC3)nc(Sc3ccc(NC(=O)C4CC4)cc3)n2)n[nH]1 [tozasertib]", "assay": "log2 fold change, soluble protein after heating vs DMSO (PISA); higher = thermal stabilisation; K562 cells, 10 uM, 30 min; active = over 0.2 and 3.5 SD of the protein, either way, in both replicates (recomputed)", "summary_of_the_method": "(§1)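 K562 cells (2×10^6 cells/mL) were treated with 10 μM compound for 30 min, and aliquots were heated for 3 min over 48°C-58°C. Pooled aliquots were extracted in PBS with 0.5% NP-40 at 4°C, and the supernatant after 21,000xg for 90 min was measured by TMTpro 16plex LC-MS/MS with channel sums equalised. Reported thermal stability, relative to control samples and from duplicates, is a log2 fold change.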", "values": [{"target": "TP53BP2 isoform 3 (UniProt Q13625)", "log2 fold change": "inactive: 0.095"}, {"target": "TRIP11 (UniProt Q15643)", "log2 fold change": "inactive: -0.01"}, {"target": "TPP2 (UniProt Q5VZU9)", "log2 fold change": "inactive: -0.426"}, {"target": "TPK1 (UniProt Q9H3S4)", "log2 fold change": "inactive: -0.005"}, {"target": "TNRC6B (UniProt Q9UPQ9)", "log2 fold change": "inactive: -0.03"}, {"target": "TRPM7 (UniProt Q96QT4)", "log2 fold change": "inactive: -0.002"}, {"target": "TRIM24 (UniProt O15164)", "log2 fold change": "inactive: 0.291"}, {"target": "TRAPPC1 (UniProt Q9Y5R8)", "log2 fold change": "inactive: -0.015"}, {"target": "TSEN34 (UniProt Q9BSV6)", "log2 fold change": "inactive: 0.038"}, {"target": "TRPC4AP (UniProt Q8TEL6)", "log2 fold change": "inactive: -0.032"}, {"target": "TRIO (UniProt O75962)", "log2 fold change": "inactive: -0.035"}, {"target": "TOMM7 (UniProt Q9P0U1)", "log2 fold change": "inactive: -0.024"}]}, {"compound": "Cc1cc(SCc2sc(-c3ccc(C(F)(F)F)cc3)nc2C)ccc1OCC(=O)O", "assay": "log2 fold change, soluble protein after heating vs DMSO (PISA); higher = thermal stabilisation; K562 cells, 10 uM, 30 min; active = over 0.2 and 3.5 SD of the protein, either way, in both replicates (recomputed)", "summary_of_the_method": "as §1", "values": [{"target": "TP53BP2 isoform 3 (UniProt Q13625)", "log2 fold change": "inactive: 0.038"}, {"target": "TRIP11 (UniProt Q15643)", "log2 fold change": "inactive: 0.037"}, {"target": "TPP2 (UniProt Q5VZU9)", "log2 fold change": "inactive: 0.41"}, {"target": "TPK1 (UniProt Q9H3S4)", "log2 fold change": "inactive: 0.048"}, {"target": "TRUB2 (UniProt O95900)", "log2 fold change": "inactive: -0.057"}, {"target": "TOM1L2 (UniProt Q6ZVM7)", "log2 fold change": "inactive: 0.035"}, {"target": "TNRC6B (UniProt Q9UPQ9)", "log2 fold change": "inactive: -0.078"}, {"target": "TREML2 (UniProt Q5T2D2)", "log2 fold change": "inactive: 0.038"}, {"target": "TRIM23 (UniProt P36406)", "log2 fold change": "inactive: 0.001"}, {"target": "TRPM7 (UniProt Q96QT4)", "log2 fold change": "inactive: 0.04"}, {"target": "TRIM24 (UniProt O15164)", "log2 fold change": "inactive: 0.125"}, {"target": "TRAPPC1 (UniProt Q9Y5R8)", "log2 fold change": "inactive: 0.034"}, {"target": "TRAPPC11 (UniProt Q7Z392)", "log2 fold change": "inactive: 0.1"}, {"target": "TSEN34 (UniProt Q9BSV6)", "log2 fold change": "inactive: 0.118"}, {"target": "TRPC4AP (UniProt Q8TEL6)", "log2 fold change": "inactive: -0.035"}, {"target": "TP53BP1 isoform 2 (UniProt Q12888)", "log2 fold change": "inactive: 0.066"}, {"target": "TNFRSF8 (UniProt P28908)", "log2 fold change": "inactive: -0.063"}, {"target": "TRMT10C (UniProt Q7L0Y3)", "log2 fold change": "inactive: 0.069"}, {"target": "TRIP10 isoform 2 (UniProt Q15642)", "log2 fold change": "inactive: -0.089"}, {"target": "TSEN2 (UniProt Q8NCE0)", "log2 fold change": "inactive: 0.056"}, {"target": "TRMT61A (UniProt Q96FX7)", "log2 fold change": "inactive: 0.106"}, {"target": "TRIM44 (UniProt Q96DX7)", "log2 fold change": "inactive: 0.024"}, {"target": "TOMM7 (UniProt Q9P0U1)", "log2 fold change": "inactive: 0.051"}, {"target": "TRAPPC6B (UniProt Q86SZ2)", "log2 fold change": "inactive: -0.014"}, {"target": "TRIQK (UniProt Q629K1)", "log2 fold change": "inactive: -0.006"}]}, {"compound": "Cc1ccc(-n2nc(C(C)(C)C)cc2NC(=O)Nc2ccc(OCCN3CCOCC3)c3ccccc23)cc1 [doramapimod]", "assay": "log2 fold change, soluble protein after heating vs DMSO (PISA); higher = thermal stabilisation; K562 cells, 10 uM, 30 min; active = over 0.2 and 3.5 SD of the protein, either way, in both replicates (recomputed)", "summary_of_the_method": "as §1", "values": [{"target": "TP53BP2 isoform 3 (UniProt Q13625)", "log2 fold change": "inactive: 0.008"}, {"target": "TRIP11 (UniProt Q15643)", "log2 fold change": "inactive: -0.011"}, {"target": "TPP2 (UniProt Q5VZU9)", "log2 fold change": "inactive: 0.093"}, {"target": "TPPP3 (UniProt Q9BW30)", "log2 fold change": "inactive: 0.002"}, {"target": "TOM1 (UniProt O60784)", "log2 fold change": "inactive: 0.052"}, {"target": "TPK1 (UniProt Q9H3S4)", "log2 fold change": "inactive: 0.01"}, {"target": "TRUB2 (UniProt O95900)", "log2 fold change": "inactive: 0.549"}, {"target": "TRIM4 (UniProt Q9C037)", "log2 fold change": "inactive: 0.092"}, {"target": "TOM1L2 (UniProt Q6ZVM7)", "log2 fold change": "inactive: 0.02"}, {"target": "TNRC6B (UniProt Q9UPQ9)", "log2 fold change": "inactive: 0.179"}, {"target": "TREML2 (UniProt Q5T2D2)", "log2 fold change": "inactive: 0.14"}, {"target": "TRAF7 (UniProt Q6Q0C0)", "log2 fold change": "inactive: -0.063"}, {"target": "TRIM23 (UniProt P36406)", "log2 fold change": "inactive: -0.043"}, {"target": "TRPM7 (UniProt Q96QT4)", "log2 fold change": "inactive: 0.028"}, {"target": "TRIM24 (UniProt O15164)", "log2 fold change": "inactive: -0.103"}, {"target": "TRAPPC1 (UniProt Q9Y5R8)", "log2 fold change": "inactive: 0.151"}, {"target": "TRAPPC11 (UniProt Q7Z392)", "log2 fold change": "inactive: 0.028"}, {"target": "TSEN34 (UniProt Q9BSV6)", "log2 fold change": "inactive: -0.011"}, {"target": "TRPC4AP (UniProt Q8TEL6)", "log2 fold change": "inactive: 0.104"}, {"target": "TP53BP1 isoform 2 (UniProt Q12888)", "log2 fold change": "inactive: 0.036"}, {"target": "TNFRSF8 (UniProt P28908)", "log2 fold change": "inactive: -0.011"}, {"target": "TRMT10C (UniProt Q7L0Y3)", "log2 fold change": "inactive: -0.008"}, {"target": "TRIO (UniProt O75962)", "log2 fold change": "inactive: 0.084"}, {"target": "TRPT1 isoform 4 (UniProt Q86TN4)", "log2 fold change": "inactive: 0.013"}, {"target": "TRABD (UniProt Q9H4I3)", "log2 fold change": "inactive: 0.025"}, {"target": "TRIP10 isoform 2 (UniProt Q15642)", "log2 fold change": "inactive: -0.035"}, {"target": "TSEN2 (UniProt Q8NCE0)", "log2 fold change": "inactive: -0.057"}, {"target": "TRMT61A (UniProt Q96FX7)", "log2 fold change": "inactive: 0.011"}, {"target": "TRIM44 (UniProt Q96DX7)", "log2 fold change": "inactive: -0.004"}, {"target": "TOMM7 (UniProt Q9P0U1)", "log2 fold change": "inactive: 0.083"}, {"target": "TSC2 (UniProt P49815)", "log2 fold change": "inactive: 0.09"}, {"target": "TRAPPC6B (UniProt Q86SZ2)", "log2 fold change": "inactive: 0.025"}, {"target": "TRIQK (UniProt Q629K1)", "log2 fold change": "inactive: 0.008"}]}]}
